# Values quoted from earlier work, collected in US20230241041A1, “LURBINECTEDIN IN THE TREATMENT OF MALIGNANT MESOTHELIOMA” (PHARMA MAR, S.A., priority 2019, published 2023).
# Some entries share one result that the patent states for a list of compounds.
# Tested on: progressive MPM
# Details: progressive patients, further systemic treatment; cited from earlier work
SMILES,median PFS,overall survival (OS),response rate
Nc1ccn([C@@H]2O[C@H](CO)[C@@H](O)C2(F)F)c(=O)n1 [gemcitabine],2-3 months,less than 9 months,less than 10%
CCC1=C[C@@H]2CN(C1)Cc1c([nH]c3ccccc13)[C@@](C(=O)OC)(c1cc3c(cc1OC)N(C)[C@H]1[C@@](O)(C(=O)OC)[C@H](OC(C)=O)[C@]4(CC)C=CCN5CC[C@]31[C@@H]54)C2 [navelbine],2-3 months,less than 9 months,less than 10%
